Measured values from US20240209029A1, “ADIPONECTIN GLYCOPEPTIDES AND COMPOSITIONS AND METHODS OF USE THEREOF” (The University of Hong Kong, priority 2021, published 2024).

What was measured:
MDA-MB-231 cells [1] = experiment: Combination index (CI) analysis, chess-board assay with adiponectin; assay type: cell-based, human; details: chessboard assay, co-incubation of peptide with adiponectin
Procedure: FIGS. 3A-3B are bar graphs showing the Emax (FIG. 3A) and EC50 (FIG. 3B) of adiponectin or peptides with no glycans (hAdn-WM), or mono-, di-, tri- and tetra-glycans. The glyACD and adiponectin elicit synergistic anti-proliferative activity in human MDA-MB-231 cells. After serum starvation for 24 hours, MDA-MB-231 cells were treated with different concentrations of hAdn-WM, glyACD, full-length human adiponectin, or their combinations. After incubation for another 24 hours, cells were harvested for manual counting. FIG. 3C is a graph showing the inhibition rate on MDA-MB-231 cells of the indicated peptides. […] The percentage inhibition on cell growth was calculated and indicated by different intensity of the blue color. […]
CI was used to determine the mode of drug interaction. […] Cells were treated with a concentration of adiponectin ranging from 0 to 2.5 μg/ml and of hAdn-WM or hAdn-WM656877101 ranging from 0 to 20 μg/ml for 24 hours and then cell numbers were counted. CI was calculated by the formula of CI=CA,x/Cx,A+CB,x/Cx,B, where CA,x and CB,x are the concentration of drug A and B used in combination to achieve x % drug effect (inhibition rate); Cx,A and Cx,B are the concentrations for single agents to achieve the same effect. […]

MDA-MB-231 cells [2] = experiment: Cancer cell proliferative assay (anti-proliferative activity, manual cell counting); assay type: cell-based, human
Procedure: FIGS. 3A-3B are bar graphs showing the Emax (FIG. 3A) and EC50 (FIG. 3B) of adiponectin or peptides with no glycans (hAdn-WM), or mono-, di-, tri- and tetra-glycans. The glyACD and adiponectin elicit synergistic anti-proliferative activity in human MDA-MB-231 cells. After serum starvation for 24 hours, MDA-MB-231 cells were treated with different concentrations of hAdn-WM, glyACD, full-length human adiponectin, or their combinations. After incubation for another 24 hours, cells were harvested for manual counting. FIG. 3C is a graph showing the inhibition rate on MDA-MB-231 cells of the indicated peptides. MDA-MB-231 cells were treated with different concentrations of adiponectin in the absence or presence of low (2.5 μg/ml) or high (20 μg/ml) doses of hAdn-WM or hAdn-WM656877101. FIG. 3D is a heatmap showing the percentage inhibition on cell growth. MDA-MB-231 cells were treated with 0, 0.22, 0.33, 0.49, 0.74, 1.11, 1.67, 2.5 μg/ml adiponectin in combination with 0, 0.3125, 0.625, 1.25, 2.5, 5, 10, 20 μg/ml hAdn-WM or hAdn-WM656877101. The percentage inhibition on cell growth was calculated and indicated by different intensity of the blue color. Data are presented as mean±SEM (n=6). *, P<0.05 vs full-length human adiponectin; ♦, P<0.05 vs peptide with no glycans (hAdn-WM); ▴, P<0.05 vs peptide with tetra-glycans (hAdn-WM656877101).
MDA-MB-231 cells were cultured in DMEM supplemented with 10% FBS and 1% penicillin-streptomycin-fungisone at 37° C. and under 5% CO2 95% humidified air. After harvesting, cells were seeded at a density of 3000 cells per well in 96-well plates and then cultured for 24 hours. After fasting in DMEM with 0.5% FBS for 24 hours, cells were subsequently stimulated with 2.5% FBS in the presence of peptides, human adiponectin or other drugs. The viable cell numbers at 24 hours at different doses were manually counted by mixing with trypan blue dye for analysis. The maximum inhibition rate (Emax) and half maximal effective concentration (EC50) were used to evaluate the anti-tumor activity of peptides and adiponectin.
Human breast cancer MDA-MB-231 cells were used to evaluate the anti-proliferative activities of adiponectin, and the 15 glyACD and non-glycosylated hAdn-WM peptides. […] The Emax of glyACD ranged from ˜26.0% to ˜53%, which was lower than that of full-length adiponectin but higher than hAdn-WM.

[3] = 24 hours incubation, viable cells manually counted

Higher EC50 compared to full-length human adiponectin (MDA-MB-231 cells [2]): ~19 fold
EC50 (MDA-MB-231 cells [2]; [3]): 6.27 ± 0.62 µg/mL
Sequence: WMAGIPGHPGHNGAPGRDGRDGTPGEKGEKGDPGLIGPKGDIGETGVPGAEGPRGFPGIQGRKGEPGEG [hAdn-WM]
Combination index (MDA-MB-231 cells [1]; 24 hours): > 1
Effect on the anti-proliferative activity of adiponectin (MDA-MB-231 cells [1]; FIG. 3D): reduced the anti-proliferative activity of adiponectin
Reduction of Emax compared to full-length human adiponectin (MDA-MB-231 cells [2]): three-fold
Emax (%) maximum inhibition rate (MDA-MB-231 cells [2]; [3]): 23.0 ± 4.23%
Emax of human adiponectin in the presence of peptide (MDA-MB-231 cells [2]; in the presence of 20 μg/ml peptide, FIG. 3C): 54.2±2.95%
